Experimental data: PubChem BioAssay AID504744 (Drosophila RNAi Screening Center, 2011)
The deposit covers about 23,000 reagents; shown is a random part of those with a known target gene and a result. Of all reagents, 98 (0.43%) were called active. 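Only hit calls are given; the phospho-dAkt signals, z-scores and hit direction were not deposited.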 A plus sign joins genes that one reagent is predicted to hit.

Purpose: 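Identify dsRNAs that increase or decrease phospho-dAkt after insulin treatment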 (primary screen)
Cells: Drosophila Kc167 cells
Reagents: long dsRNA against Drosophila genes, 250 ng dsRNA per well of a 384-well plate
Duration: 3 days of knock-down, then overnight serum-free starvation before stimulation
Treatment: bovine insulin at 387 nM for 10 minutes after 12 h without serum
Measurement: 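In-cell antibody fluorescence for phospho-dAkt in each well over DNA-dye signal, with log2 residuals expressed as z-scores adjusted for cell count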
Active means: 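Under insulin, a gene counts as a hit if the average z-score of two replicates lies above 2.5 or below -2.5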

homer [DRSC03547] | call = inactive
CG31373 [DRSC16052] | call = inactive
CG13578 [DRSC04214] | call = inactive
IntS10 [DRSC08173] | call = inactive
CG4956 [DRSC15683] | call = inactive
CG11601 [DRSC00318] | call = inactive
inv [DRSC07633] | call = inactive
Idgf6 [DRSC07360] | call = inactive
CG8195 [DRSC07103] | call = inactive
CG42340 [DRSC17458] | call = inactive
CG42340 [DRSC17841] | call = inactive
CG42340 [DRSC18305] | call = inactive
CG42340 [DRSC21619] | call = inactive
lectin-37Da [DRSC03278] | call = inactive
lectin-37Da [DRSC22729] | call = inactive
CG8379 [DRSC16414] | call = inactive
CG33332 [DRSC15504] | call = inactive
CG13474 [DRSC10018] | call = inactive
unk [DRSC17093] | call = inactive
CG12121 [DRSC17816] | call = inactive
CG14740 [DRSC14960] | call = inactive
CG10859 [DRSC02110] | call = inactive
foi [DRSC10719] | call = inactive
spel1 [DRSC03617] | call = inactive
mats [DRSC13562] | call = inactive
mats [DRSC14702] | call = inactive
Der-1 [DRSC00301] | call = inactive
CG14464 [DRSC07760] | call = inactive
NHP2 [DRSC11229] | call = inactive
CG30323 [DRSC07656] | call = inactive
CG15343 [DRSC18028] | call = inactive
Polr3F [DRSC15785] | call = inactive
CG4596 [DRSC15608] | call = inactive
Lkb1 [DRSC16481] | call = inactive
CG30356 [DRSC05119] | call = inactive
CG4629 [DRSC00659] | call = inactive
TwdlS [DRSC14737] | call = inactive
Or94b [DRSC16773] | call = inactive
Atg10 + CG18853 + CG12822 [DRSC20757] | call = inactive
Vps50 [DRSC06910] | call = inactive
betaNACtes3 [DRSC20183] | call = inactive
ari-1 [DRSC20308] | call = inactive
ari-1 [DRSC21603] | call = inactive
Tep2 [DRSC02679] | call = inactive
Tep2 [DRSC03451] | call = inactive
Tango9 [DRSC14173] | call = inactive
IntS3 [DRSC21215] | call = inactive
CG17294 [DRSC02596] | call = inactive
CG17196 [DRSC15189] | call = inactive
Shrm [DRSC06437] | call = inactive
Shrm [DRSC06438] | call = inactive
Shrm [DRSC07221] | call = inactive
Rh6 [DRSC16823] | call = inactive
Saf-B [DRSC16167] | call = inactive
CG11050 [DRSC02125] | call = inactive
CG6154 [DRSC15977] | call = inactive
Nelf-E [DRSC10567] | call = inactive
CG15098 [DRSC06527] | call = inactive
TfIIFalpha [DRSC12608] | call = inactive
hubl [DRSC06825] | call = inactive
Nadk2 [DRSC07072] | call = inactive
CG1835 [DRSC20560] | call = inactive
Cpr [DRSC03293] | call = inactive
Cpr47Ea [DRSC07333] | call = inactive
Kaz1-ORFB + Kaz1-ORFA [DRSC08669] | call = inactive
H [DRSC16692] | call = inactive
fy [DRSC03533] | call = inactive
vnc + CG42455 [DRSC09867] | call = inactive
Obp44a [DRSC06838] | call = inactive
Gyc89Db [DRSC15009] | call = inactive
MED27 [DRSC12205] | call = inactive
CG17362 [DRSC10267] | call = inactive
REPTOR [DRSC14626] | call = inactive

Part of the list above, reformatted:
target | dsRNA | call
IntS3 | DRSC21215 | inactive
CG17294 | DRSC02596 | inactive
CG17196 | DRSC15189 | inactive
Shrm | DRSC06437 | inactive
Shrm | DRSC06438 | inactive
Shrm | DRSC07221 | inactive
Rh6 | DRSC16823 | inactive
Saf-B | DRSC16167 | inactive
CG11050 | DRSC02125 | inactive
